Measured values from patent US10738019B2, “Compound including basic dye and amino acid, hair dyeing dye, and hair dyeing composition” (HODOGAYA CHEMICAL CO., LTD., priority 2018, dated 2020).

What was measured:
Design in all cases: species or system Human
[1] = Hair dyeing concentration (K/Sd) of hair dyed with dyeing gel, spectrocolorimeter; conditions: before test; dyeing gel pH 6, hair dyed at 40° C. for 10 minutes, washed with water
[2] = Sweat resistance test (basic artificial sweat); conditions: basic artificial sweat pH 8.0, 40° C., 10 minutes; for Residual rate (K/Sd ratio relative to untested specimen): bath ratio 1:10; for Hue difference ΔH: before vs after test
[3] = Sweat resistance test (acidic artificial sweat); conditions: acidic artificial sweat pH 5.5, 40° C., 10 minutes; for Residual rate (K/Sd ratio relative to untested specimen): bath ratio 1:10; for Hue difference ΔH: before vs after test

| SMILES | Dyeing concentration (K/Sd) [1] | Residual rate (K/Sd ratio relative to untested specimen) [2] | Hue difference ΔH [2] | Residual rate (K/Sd ratio relative to untested specimen) [3] | Hue difference ΔH [3] |
| --- | --- | --- | --- | --- | --- |
| C[N+](C)(C)c1ccc2ccc(O)c(N=Nc3ccc(N)cc3)c2c1.[Cl-] [Basic Brown 16, C.I. Basic Brown 16] | 60.7 | 73.4% | 0.89 | 85.8% | 0.87 |
| CC1=CC(=C(c2ccc(N)c(C)c2)c2ccc(N)c(C)c2)C=CC1=N.Cl [Basic Violet 2, C.I. Basic Violet 2] | 81.2 | 74.7% | 1.02 | 97.5% | 1.03 |
| CC1=CC(=C(c2ccc(N)c(C)c2)c2ccc(N)c(C)c2)C=CC1=N [Compound (A-3)] | 129.7 | 83.3% | 1.07 | 99.9% | 1.06 |
| C[N+](C)(C)c1ccc2ccc(O)c(/N=N/c3ccc(N)cc3)c2c1 [Compound (A-5)] | 72.2 | 91.0% | 0.97 | 64.1% | 0.87 |
| CC1=CC(=C(c2cc(C)c(N)c(C)c2)c2c(Cl)cccc2Cl)C=C(C)C1=N.O=P(O)(O)O [HC Blue 15, C.I. HC Blue 15] | 50.6 | 97.7% | 1.02 | 89.5% | 0.93 |
